In patent US20160102103A1, “SUBSTITUTED PYRIDINE COMPOUNDS HAVING HERBICIDAL ACTIVITY” (BASF SE, priority 2013, published 2016):
Some of these results come from one statement about several compounds together.

Key:
Type in all cases: in vivo
[1] = system: Amaranthus retroflexus; test: greenhouse post-emergence herbicidal test, AMARE; conditions: scale from 0 to 100
Text: (§1) The seeds of the test plants were sown separately for each species. For the post-emergence treatment, the test plants were first grown to a height of 3 to 15 cm, depending on the plant habit, and only then treated with the active ingredients which had been suspended or emulsified in water. For this purpose, the test plants were either sown directly and grown in the same containers, or they were first grown separately as seedlings and transplanted into the test containers a few days prior to treatment. Depending on the species, the plants were kept at 10-25° C. or 20-35° C., respectively. The test period extended over 2 to 4 weeks. During this time, the plants were tended, and their response to the individual treatments was evaluated. Evaluation was carried out using a scale from 0 to 100. 100 means no emergence of the plants, or complete destruction of at least the aerial moieties, and 0 means no damage, or normal course of growth. A good herbicidal activity is given at values of at least 70 and a very good herbicidal activity is given at values of at least 85. The plants used in the greenhouse experiments were of the following species: [table]

[2] = system: Chenopodium album; test: greenhouse post-emergence herbicidal test, CHEAL; conditions: scale from 0 to 100
[3] = system: Setaria viridis; test: greenhouse post-emergence herbicidal test, SETVI; conditions: scale from 0 to 100
Text: as §1

[4] = system: Polygonum convolvulus; test: greenhouse post-emergence herbicidal test, POLCO; conditions: application rate 0.25 kg/ha, scale from 0 to 100
Text: as §1

[5] = system: Echinocloa crus-galli; test: greenhouse post-emergence herbicidal test, ECHCG; conditions: application rate 0.125 kg/ha, scale from 0 to 100
Text: as §1

Row | SMILES | herbicidal activity against AMARE ([1]; application rate 0.25 kg/ha) | herbicidal activity against CHEAL ([2]; application rate 0.25 kg/ha) | herbicidal activity against AMARE ([1]; application rate 0.125 kg/ha) | herbicidal activity against CHEAL ([2]; application rate 0.125 kg/ha) | herbicidal activity against ECHCG [5] | other results
1 | O=S1(=O)Cc2cccnc2C(O)=C1c1c(Cl)cncc1Cl [Compound I-1] | very good herbicidal activity (a very good herbicidal activity is given at values of at least 85) | very good herbicidal activity (a very good herbicidal activity is given at values of at least 85) |  |  |  | 
2 | CC(C)(C)C(=O)OC1=C(c2c(Cl)cncc2Cl)S(=O)(=O)C(C)(C)c2cccnc21 [Compound I-2] | very good herbicidal activity (a very good herbicidal activity is given at values of at least 85) | very good herbicidal activity (a very good herbicidal activity is given at values of at least 85) |  |  |  | herbicidal activity against SETVI ([3]; application rate 0.25 kg/ha): very good herbicidal activity (a very good herbicidal activity is given at values of at least 85)
3 | CC(C)(C)C(=O)OC1=C(c2c(Cl)cnc(Cl)c2Cl)S(=O)(=O)Cc2cccnc21 [Compound I-4, [6,6-dioxo-7-(2,3,5-trichloro-4-pyridyl)-5H-thiopyrano[4,3-b]pyridin-8-yl]2,2-dimethylpropanoate] | very good herbicidal activity (a very good herbicidal activity is given at values of at least 85) | very good herbicidal activity (a very good herbicidal activity is given at values of at least 85) |  |  |  | herbicidal activity against POLCO [4]: very good herbicidal activity (a very good herbicidal activity is given at values of at least 85)
4 | CC1(C)c2cccnc2C(O)=C(c2c(Cl)cnc(Cl)c2Cl)S1(=O)=O [Compound I-6, 5,5-dimethyl-6,6-dioxo-7-(2,3,5-trichloro-4-pyridyl)thiopyrano[4,3-b]pyridin-8-ol] | very good herbicidal activity (a very good herbicidal activity is given at values of at least 85) | very good herbicidal activity (a very good herbicidal activity is given at values of at least 85) |  |  |  | herbicidal activity against SETVI ([3]; application rate 0.25 kg/ha): very good herbicidal activity (a very good herbicidal activity is given at values of at least 85)
5 | COc1c(Cl)ncc(Cl)c1C1=C(OC(=O)C(C)(C)C)c2ncccc2CS1(=O)=O [Compound I-13] | very good herbicidal activity (a very good herbicidal activity is given at values of at least 85) | very good herbicidal activity (a very good herbicidal activity is given at values of at least 85) |  |  |  | 
6 | COc1c(Cl)ncc(Cl)c1C1=C(O)c2ncccc2CS1(=O)=O [Compound I-14] | very good herbicidal activity (a very good herbicidal activity is given at values of at least 85) | very good herbicidal activity (a very good herbicidal activity is given at values of at least 85) |  |  |  | herbicidal activity against SETVI ([3]; application rate 0.25 kg/ha): very good herbicidal activity (a very good herbicidal activity is given at values of at least 85)
7 | COc1ncc(Cl)c(C2=C(O)c3ncccc3CS2(=O)=O)c1Cl [Compound I-21] |  |  | very good herbicidal activity (a very good herbicidal activity is given at values of at least 85) | very good herbicidal activity (a very good herbicidal activity is given at values of at least 85) |  | herbicidal activity against SETVI ([3]; application rate 0.125 kg/ha): very good herbicidal activity (a very good herbicidal activity is given at values of at least 85)
8 | CCOc1ncc(Cl)c(C2=C(O)c3ncccc3CS2(=O)=O)c1Cl [Compound I-23] |  |  | good herbicidal activity (A good herbicidal activity is given at values of at least 70) |  | very good herbicidal activity (a very good herbicidal activity is given at values of at least 85) | herbicidal activity against SETVI ([3]; application rate 0.125 kg/ha): very good herbicidal activity (a very good herbicidal activity is given at values of at least 85)
9 | COCCOc1ncc(Cl)c(C2=C(O)c3ncccc3CS2(=O)=O)c1Cl [Compound I-25] |  |  | very good herbicidal activity (a very good herbicidal activity is given at values of at least 85) | very good herbicidal activity (a very good herbicidal activity is given at values of at least 85) | very good herbicidal activity (a very good herbicidal activity is given at values of at least 85) | 
10 | O=S1(=O)Cc2cccnc2C(O)=C1c1c(F)cnc(Cl)c1Br [Compound I-27] | very good herbicidal activity (a very good herbicidal activity is given at values of at least 85) | very good herbicidal activity (a very good herbicidal activity is given at values of at least 85) |  |  |  | 
11 | CC1(C)c2cccnc2C(O)=C(c2c(F)cnc(Cl)c2Br)S1(=O)=O [Compound I-28] |  |  | very good herbicidal activity (a very good herbicidal activity is given at values of at least 85) | very good herbicidal activity (a very good herbicidal activity is given at values of at least 85) |  | 
12 | O=S1(=O)Cc2cccnc2C(O)=C1c1c(Cl)cnc(Br)c1Cl [Compound I-29] |  |  | very good herbicidal activity (a very good herbicidal activity is given at values of at least 85) | very good herbicidal activity (a very good herbicidal activity is given at values of at least 85) |  | herbicidal activity against SETVI ([3]; application rate 0.125 kg/ha): very good herbicidal activity (a very good herbicidal activity is given at values of at least 85)
13 | Cc1c(Cl)ncc(F)c1C1=C(O)c2ncccc2CS1(=O)=O [Compound I-36] |  |  |  |  |  | herbicidal activity against AMARE ([1]; application rate 1.0 kg/ha): very good herbicidal activity (a very good herbicidal activity is given at values of at least 85); herbicidal activity against SETVI ([3]; application rate 1.0 kg/ha): very good herbicidal activity (a very good herbicidal activity is given at values of at least 85)
14 | CC1(C)c2cccnc2C(O)=C(c2c(Cl)cnc(Cl)c2F)S1(=O)=O [Compound I-39] |  |  | very good herbicidal activity (a very good herbicidal activity is given at values of at least 85) | very good herbicidal activity (a very good herbicidal activity is given at values of at least 85) |  | 
15 | O=S1(=O)Cc2cccnc2C(O)=C1c1c(Br)cnc(Cl)c1F [Compound I-40] |  |  | good herbicidal activity (A good herbicidal activity is given at values of at least 70) | very good herbicidal activity (a very good herbicidal activity is given at values of at least 85) |  | 
16 | CC1(C)c2cccnc2C(O)=C(c2c(Br)cnc(Cl)c2F)S1(=O)=O [Compound I-41] |  |  | very good herbicidal activity (a very good herbicidal activity is given at values of at least 85) | very good herbicidal activity (a very good herbicidal activity is given at values of at least 85) | very good herbicidal activity (a very good herbicidal activity is given at values of at least 85) | 
17 | O=S1(=O)Cc2cccnc2C(O)=C1c1c(Cl)cnc(Cl)c1C1CC1 [Compound I-47] |  |  | very good herbicidal activity (a very good herbicidal activity is given at values of at least 85) | very good herbicidal activity (a very good herbicidal activity is given at values of at least 85) |  | herbicidal activity against SETVI ([3]; application rate 0.125 kg/ha): very good herbicidal activity (a very good herbicidal activity is given at values of at least 85)
18 | CN(c1nccc(C2=C(O)c3ncccc3CS2(=O)=O)c1Cl)S(C)(=O)=O [Compound I-49] |  |  |  | very good herbicidal activity (a very good herbicidal activity is given at values of at least 85) | very good herbicidal activity (a very good herbicidal activity is given at values of at least 85) | 
19 | CC1(C)c2cccnc2C(O)=C(c2c(Cl)cnc(Br)c2F)S1(=O)=O [Compound I-52] |  |  | very good herbicidal activity (a very good herbicidal activity is given at values of at least 85) | very good herbicidal activity (a very good herbicidal activity is given at values of at least 85) | very good herbicidal activity (a very good herbicidal activity is given at values of at least 85) | 
20 | O=S1(=O)Cc2cccnc2C(O)=C1c1c(F)cnc(Br)c1Cl [Compound I-53] |  |  | very good herbicidal activity (a very good herbicidal activity is given at values of at least 85) | very good herbicidal activity (a very good herbicidal activity is given at values of at least 85) | very good herbicidal activity (a very good herbicidal activity is given at values of at least 85) | 
21 | CC(=O)N(C)c1ncc(Cl)c(C2=C(O)c3ncccc3CS2(=O)=O)c1Cl [Compound I-55] |  |  | very good herbicidal activity (a very good herbicidal activity is given at values of at least 85) | very good herbicidal activity (a very good herbicidal activity is given at values of at least 85) | very good herbicidal activity (a very good herbicidal activity is given at values of at least 85) | 
22 | CCc1c(Cl)ncc(Cl)c1C1=C(O)c2ncccc2CS1(=O)=O [Compound I-57] |  |  | very good herbicidal activity (a very good herbicidal activity is given at values of at least 85) | very good herbicidal activity (a very good herbicidal activity is given at values of at least 85) | very good herbicidal activity (a very good herbicidal activity is given at values of at least 85) | 
